This note sets out measurements from PMC10127613 (mBio, 2023).

No signal at the amounts used counts as a negative. Protein sequences can lack the tags named with them. A weaker result is weaker than the reference pair of the same experiment.

This data set deals with T1, Clr (Sinorhizobium meliloti) (UniProt Q92SD2).
T1 sequence (looked up): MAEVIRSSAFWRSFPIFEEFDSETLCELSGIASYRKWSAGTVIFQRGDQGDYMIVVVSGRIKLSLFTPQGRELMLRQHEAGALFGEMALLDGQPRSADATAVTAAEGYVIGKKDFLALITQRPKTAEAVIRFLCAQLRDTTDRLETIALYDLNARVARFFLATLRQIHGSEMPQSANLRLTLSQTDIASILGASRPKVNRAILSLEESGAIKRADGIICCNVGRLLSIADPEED
The data set is described as follows: EMSA. The conditions noted are these: 1 mM cAMP, EMSA: 2 mM HEPES pH 7.0, 30 mM NaCl, 50 mM KCl, 850 ng salmon sperm DNA, 1 ug BSA, 20 ng Cy3-DNA, 3 ug Clr in 10 uL, room temperature, recombinant protein, residues 1-234, protein details: C-terminal His6 (pET36b, NdeI/XhoI), label: 5'-Cy3 on reverse strand. (A gel shift assay detects complexes by their altered migration in electrophoresis.)

On to “AGCGGATAACAATTTCACACAGGAAACAGCATATGACCATGATTACGCCAAGCTCGAAATTAACCCTCACTAAAGGGAACAAAAGCTGGAGCTCTTAAGCTTTCGGCCACCTCTCCGTTAGCGCCTGACTAGTGTCACGGCGTTTCCAATGCAAGATTTTTTTGTCGAATTTCAGGAAATCATCCGATTTTCATCCGCTTCGGGCCGCGGCGCCCCCCGAGTCATATGAGAACTAGGACCGCATCGGGCAATCGGGAAAGGTCTTGTCCGTCGCGCATGAAACGTCACAACGCCAAGTGCACTGACTTCTTCCGGGGGAATTCTTTCTCTGCGTCGATTCCGATTCCCATCCTTATGCGATAAGTTCCGCGGGCATTTCCGAACGGAGTACGGTTTTTCAAGATGTCCGCATTCTCACGCTTCACGCTCTAGACTGCAGATGGTGAGCAAGGGCGAGGAGCTGTTCA (double strand) [hisC4]”, for which the binding result is recorded as “binds more weakly”. In the case of “AGCGGATAACAATTTCACACAGGAAACAGCATATGACCATGATTACGCCAAGCTCGAAATTAACCCTCACTAAAGGGAACAAAAGCTGGAGCTCTTAAGCTTCGCCAGAAGCTCAGCTTTCTGCGCAGGCTGCGGCGGTCGGCAATGGCGAGTTCGTCCATGGGTGTCTCCGATTTTTGGTAAGGGGGTTCTGTCAGTTTCCCACGGAACATGCTATCTGCCTCAGCCGCGGCAAGCTAGGGTAGTCTGCAACGCGGCGCACGGGAATAGGCGCCGGGCCGACGCGAGTTGCTGCATGAAACCCCTTGGGGTTTGACGCGGCATGGAGTAGAGCATGCCCGGCGGAATGGAATATTGCGGCGGGATTGTCTTACAACGCAAAGTTTGCGCCGCTCCATTGCCGGGCGGCAGCAAGATAACCATATTCGCCGTGGCTTACGCCGATGTATGTATATGTGTCCCTCGGACTGCCCGAGGTCAGACGAAACTGACAGGCTCTTGATGCTGAACGAAGCCTCTAGACTGCAGATGGTGAGCAAGGGCGAGGAGCTGTTCA (double strand) [SMc01135 / SMc01136]”, the binding result is listed as “binds”.

Take “AGCGGATAACAATTTCACACAGGAAACAGCATATGACCATGATTACGCCAAGCTCGAAATTAACCCTCACTAAAGGGAACAAAAGCTGGAGCTCTTAAGCTTCGGTCGGTGGTTTTCCATCAATCGGAACCTGAACGCTGAAAGTGAAACGTGCCGCTTCCATAGCCTAGTCCACCTCGTCCTCTGCCATCGGCACAAGGCCGACGATGGGCAAAAACGGCATCGTAGAAGCGCTTCGAACGCCCAACATCATTCGTCCCTACCGAGACATGGTGGATCACAACTACCTGCGCTCCAGCTTTGTCCCTAGCGGCAGCTTCTGGTCATTGTTTCCTCAAAGCCGACTGTCGTTTGTTCACCACAAGATACAGCCTTGCTTTCATGTTGAACGGTAATTTATGTTGTGTTCAACACACGGAGGCTAGCATGCGTGCCCAAATCAGTTCCTCTAGACTGCAGATGGTGAGCAAGGGCGAGGAGCTGTTCA (double strand) [SMa1706 /SMa1711]”: the binding result is reported as “binds more weakly”. Take “AGCGGATAACAATTTCACACAGGAAACAGCATATGACCATGATTACGCCAAGCTCGAAATTAACCCTCACTAAAGGGAACAAAAGCTGGAGCTCTTAAGCTTAGGTGAGCTTTTCGAAGTCCGGCAGCTGGTAGGTCGAGCAGGTCGGGGTGAAAGCACCCGGCAGCGAAAACAGCACGACGCGCTTGCCGGCGAAATAGTCGTCCGAGGTAACGTCCTGCCAGCGGAACGGATTGGAACCGCCGACGGACTCGTCGCGGACGCGGGTGCGGAAGGTTACAGCGGGAACTTTTCTGCCGAGCATCATCATCTCCTAAAAACTGGCTGCCGGCGGCGCAGTCTTGGGAGGACAGGCGCGCCGGCGGAAATCGAGTGCCCTTCCTAACGAAATTTCCGCTGCAGTGCAGCATCAAAGCGACGGAGACCTCCCGCATGGCAGCCATGCGGAAGGCGCATGACTGCGGGGCAATTAAACGAGCTGCGGCGACAGTCCCCGATCCGGTAGGCCTTGATGATATTGCTGGCAATGAGGCAATTTGCACGGACAGCGCCGCACCTTGAAGTGTAACGCTTAGTGTTATATATAGACCGGTAGGATGGCGTCTAGACTGCAGATGGTGAGCAAGGGCGAGGAGCTGTTCA (double strand) [SMc01995]”: the binding result is “binds”. Regarding “AGCGGATAACAATTTCACACAGGAAACAGCATATGACCATGATTACGCCAAGCTCGAAATTAACCCTCACTAAAGGGAACAAAAGCTGGAGCTCTTAAGCTTGAAGCGATCGTCTTCACCGCTCGCGTCGTAGCGCCCGAAACGGTGAGCGCCTGAGGCGGGACCAAGCGCGGCTTTCGGCAAATCTGGCCGATTTCCATCGTCTCATTGCTCCGGTGACGGGAGGACTCATGCGCCCTCCCGTATGCTTCACGACCGCATCCCTCCGACCGACCGGAAGCGCCGGCGGTTTTCAGCGCGGCGGGTGATGCCGCGTCACCGCGGTAACTGTTTCTTTGCCAAATCCGTATAGGATTGCTTCATGGAGATGGTTTCGCGTGTGGCGGAGCGGGAAGGAGATGGACGTGCGGCGCTTGATGATTGCTGACGGATCTAGACTGCAGATGGTGAGCAAGGGCGAGGAGCTGTTCA (double strand) [SMc00653]”, the binding result is recorded as “binds”. As to “AGCGGATAACAATTTCACACAGGAAACAGCATATGACCATGATTACGCCAAGCTCGAAATTAACCCTCACTAAAGGGAACAAAAGCTGGAGCTCTTAAGCTTGGACCAGATCACCCGCAAAGCCTTCGCCTTCTTGCGGGACGGCGAGCGCAAGCCCGCCATATTGTGGGTCCTTGCCAACCAGGACCTGGCGGAACTCTTCGACCGCGTCGCGCATTTCGAAAACGGGCGGTTGGCGCGCGACGAACCGGTGGAAACGCATGCAAGAGACAGCGACTACAAGGAACTGGCATCTTGATGTAATATTGTTGTCAGGAGGCAAGCATATGTTCCCGCCGGCACGGGATAGGACCTGTTTGCACCAACCGCGACGCATTCGGAGAACCGGACTGTTATGCTCCTAAAACTAGACTGCAGATGGTGAGCAAGGGCGAGGAGCTGTTCA (double strand) [SMb21270]”, the binding result is reported as “binds more weakly”. Turning to “AGCGGATAACAATTTCACACAGGAAACAGCATATGACCATGATTACGCCAAGCTCGAAATTAACCCTCACTAAAGGGAACAAAAGCTGGAGCTCTTAAGCTTCTGCCCGATTTTGGCCACAAGATACAATCGACAGTATTAATTGCGAAGGAACAATACATCCAATAATCTGGTTCTGATCTGTTTCTTCTATCGGTTATATTAACGATCTCTCTTTCACTCGACGATTGTGCACGTGATTTGCTACAAGCCTCGGACCGCTGCCGCATGTAGCAATGGCAACGCAAAACGGGTTAAAAGGGATCAAACGAGAGCTGACGAGACATGATGGAATCGGTGCAAACTGACGGGAAGAGGGGAGAAAACAGGTACTTCAAGGCGCCTGTCTTTGCCGTGGCGCCTATGATCGACTGGACCGATCGTTCTAGACTGCAGATGGTGAGCAAGGGCGAGGAGCTGTTCA (double strand) [SMc04235 / SMc04236]”, the binding result was “binds more weakly”. For “AGCGGATAACAATTTCACACAGGAAACAGCATATGACCATGATTACGCCAAGCTCGAAATTAACCCTCACTAAAGGGAACAAAAGCTGGAGCTCTTAAGCTTTTGCCTATTTCGTCGCACGGGCGGAGGTGACGCCTGAATCGCTCGCCGCCAACCCGGACATCCGCCTCTATCCCGGCATGCCCGCGGAAGTGCTGATCGTGCACAAATCGCGCTCGGCAATCGACTACCTCGTCGCCCCAGTCTCCGACAGTTTCAACCGGGCTTTTCGGGAGGACTGACCTGTCTAGCTCTTGATATCTCTTCTCGTCGCAAATTACTTTAAAATTTGAAGCGCTTTGCCTGCATTTCCGTCAGAATTACTCCTAAAATTATATTGTACCAATATTGGCACAGCATGGAGATATGTTTCGGGCACCCTCTTTCTATCAAAATATCGCCGTTTTATTTTATGCATCTGTGTTGCGTTCGTAATTATTGCAGTGCACACTCCGGCACGCAATCCTCGGCTCCGTGCCGATGACGCATGCATCAAACCACGAAGAGGAGAAGCAGATGGCCACTTTGGAAGGCGGCGCATACTCTAGACTGCAGATGGTGAGCAAGGGCGAGGAGCTGTTCA (double strand) [wgeA]”, the binding result was “binds more weakly”.

As for “AGCGGATAACAATTTCACACAGGAAACAGCATATGACCATGATTACGCCAAGCTCGAAATTAACCCTCACTAAAGGGAACAAAAGCTGGAGCTCTTAAGCTTACCGGAAACATCGTCGCGGGCTAGTTATTTCGGATTATAAAGTATTGTTAATAGACGCATCATTCTGCACTGACGGACAGCGGACCCGCTGGTGCACGAAATTGACGCGCGGCAACTTTCCCTCACTTTTTTTGCATCGCAACATTTTATTGCGGCGCACAGTTGCTGAGGCTACCCGCTCAAACACGTGTAACAAAAGTTGATCGGGAAAAAAGGCCGGCCACACGCCCCAAGAGGTAGCACCCAAGGCAGCTTTCCGAAAGGCCGGGCAATTTTAGGGGAACTACGGCCGCGTTCCGCGCGCATCCACCTCACGCGGCAAACTGCCCCGGAGATGGGGAACTTATCCGCGATCACACCCGTTTGAATTGTGCGAAATGGAGCCAATGCTTAAAGGCGGCGGAAAGATTTCCGATGTATGCTCGACTGCAACAAAGTAGCGTTTCCCGGTTGAAGAGAAAAGCGGGCGCTAATATAGTGGCCAGGCAGGAGGAGAGGGCAACAACTCTTATGAGGTTCCCAATCGCAGACCCGAAGGTAGGTTAGCGCCATGTTCGCACCGCGTGTTCTAGACTGCAGATGGTGAGCAAGGGCGAGGAGCTGTTCA (double strand) [exoX / exoY]”, the binding result was “binds more weakly”. Turning to “AGCGGATAACAATTTCACACAGGAAACAGCATATGACCATGATTACGCCAAGCTCGAAATTAACCCTCACTAAAGGGAACAAAAGCTGGAGCTCTTAAGCTTGTCGTGGCCCTGACTGATGTCGGCAGAGGTAACGAGGTCGCGCACGGCTATGGCATCGGAAAGGCCGTCGGATGTCTTCGCCACCGGCACGGTTCCGGTCGAGACCGAACGATCGACGCCCGATCCCCCGAAGACGTCGAGGCCCGCGCCCATGCACCCCGGCAGAGCGAGAATCGTCACGCAAATTGCCGCGCTGCGCAGCAATGCGAAGGAAAGACCCTTCTTGCCATCGTTCCGCTTTGCTATGTCTTGCACGGCAATCCTGTCAGACTCGCCAGAGCGCACCACGTCCCGAGGAAGTCCGCAGGCAGGCTCTGACATTATTACGATGCGGAAACACCACTCGGGCTCATCCCGAAGCGTTCCCGCGCCAGACACACGGCATTGGAAAACAATATGACCGCGAACGAGTTATCTAGACTGCAGATGGTGAGCAAGGGCGAGGAGCTGTTCA (double strand) [pdxH]”, the binding result is on record as “no binding”.
